# Assay results reported in the supplement of paper PMC8728848.
# This is one part of the list.
# B1: Epf (Streptococcus pyogenes) (protein)
# chain: GDHGPEFNGVMVVKAAEAEELPDDLMNFKGTWEVSADGSSGRFFSKGATDSYVFHLIPAKDVKKPGWREHNEVKDSYIKIDKQSIAARYKTSTTAPYSVAFKVNTKSLIKDHDYKITFEQGQIASGITVDYRIGSAFNKTTDDSFKISDESKYASNVKIEGEEQGFKQREQGDKTISFRTLKEGPMSLVLLSKVEKKPQGDLDVEFKNLKIIDVTNPSQLDKGVAYVGNKNVQLTLKSDDGRTNFEGDEISLFNSRGELLQTVTVTKDQQNPISITLSEDQAKSLKNKEKLKVSIKQKQSKKTSKDFFFEVGIDPKVEAKQKEKLLELDKVKKQIEDSINGDAWLPEKPVDLQGDHGLSAWSHPQFEK
# How the values were obtained:
# Test in all cases: glycan array binding signal (z-score within array); higher = stronger binding
# Conditions in all cases: glycan notation: IUPAC condensed, linker removed
# [1] = molecular target: Gal(b1-3)[GlcNAc(b1-6)]GalNAc
# Outline: (§1)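 Glycan array data were curated from 3228 arrays in the Consortium for Functional Glycomics database and kept only where the protein sequence was available. Glycan names were converted to IUPAC-condensed notation, and columns mapping to the same glycan were averaged. The binding signal is a within-array Z-score, averaged across arrays of the same protein sequence at different concentrations or buffers and across linkers. Negative Z-scores can be read as non-binding.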
# [2] = molecular target: Gal(b1-3)[Neu5Ac(a2-6)]GalNAc
# Outline: as §1
# [3] = molecular target: Gal(b1-3)[Neu5Ac(a2-6)]GlcNAc(b1-4)Gal(b1-4)Glc
# Outline: as §1
# [4] = molecular target: Gal(b1-3)[Neu5Ac(b2-6)]GalNAc
# Outline: as §1
# Gal(b1-4)Gal = molecular target: Gal(b1-4)Gal
# Outline: as §1
# [5] = molecular target: Gal(b1-4)GalNAc(a1-3)[Fuc(a1-2)]Gal(b1-4)GlcNAc
# Outline: as §1
# [6] = molecular target: Gal(b1-4)GalNAc(b1-3)[Fuc(a1-2)]Gal(b1-4)GlcNAc
# Outline: as §1
# Gal(b1-4)Glc = molecular target: Gal(b1-4)Glc
# Outline: as §1
# Gal(b1-4)Glc6S = molecular target: Gal(b1-4)Glc6S
# Outline: as §1
# Gal(b1-4)GlcNAc = molecular target: Gal(b1-4)GlcNAc
# Outline: as §1
# [7] = molecular target: Gal(b1-4)GlcNAc(a1-6)Gal(b1-4)GlcNAc
# Outline: as §1
# Gal(b1-4)GlcNAc(b1-2)Man = molecular target: Gal(b1-4)GlcNAc(b1-2)Man
# Outline: as §1
# [8] = molecular target: Gal(b1-4)GlcNAc(b1-2)Man(a1-3)Man(b1-4)GlcNAc(b1-4)GlcNAc
# Outline: as §1
# [9] = molecular target: Gal(b1-4)GlcNAc(b1-2)Man(a1-3)[Gal(b1-4)GlcNAc(b1-2)Man(a1-6)]Man(b1-4)GlcNAc(b1-4)GlcNAc
# Outline: as §1
# [10] = molecular target: Gal(b1-4)GlcNAc(b1-2)Man(a1-3)[Gal(b1-4)GlcNAc(b1-2)Man(a1-6)]Man(b1-4)GlcNAc(b1-4)[Fuc(a1-6)]GlcNAc
# Outline: as §1
# [11] = molecular target: Gal(b1-4)GlcNAc(b1-2)Man(a1-3)[Gal(b1-4)GlcNAc(b1-2)Man(a1-6)][Gal(b1-4)GlcNAc(b1-4)]Man(b1-4)GlcNAc(b1-4)[Fuc(a1-6)]GlcNAc
# Outline: as §1
# [12] = molecular target: Gal(b1-4)GlcNAc(b1-2)Man(a1-3)[Gal(b1-4)GlcNAc(b1-2)Man(a1-6)][GlcNAc(b1-4)]Man(b1-4)GlcNAc(b1-4)[Fuc(a1-6)]GlcNAc
# Outline: as §1
# [13] = molecular target: Gal(b1-4)GlcNAc(b1-2)Man(a1-3)[GlcNAc(b1-2)Man(a1-6)]Man(b1-4)GlcNAc(b1-4)GlcNAc
# Outline: as §1
# [14] = molecular target: Gal(b1-4)GlcNAc(b1-2)Man(a1-3)[GlcNAc(b1-4)][Gal(b1-4)GlcNAc(b1-2)Man(a1-6)]Man(b1-4)GlcNAc(b1-4)GlcNAc
# Outline: as §1
# [15] = molecular target: Gal(b1-4)GlcNAc(b1-2)Man(a1-3)[Man(a1-6)]Man(b1-4)GlcNAc(b1-4)GlcNAc
# Outline: as §1
# [16] = molecular target: Gal(b1-4)GlcNAc(b1-2)Man(a1-6)Man(b1-4)GlcNAc(b1-4)GlcNAc
# Outline: as §1
# [17] = molecular target: Gal(b1-4)GlcNAc(b1-2)Man(a1-6)[GlcNAc(b1-2)Man(a1-3)]Man(b1-4)GlcNAc(b1-4)GlcNAc
# Outline: as §1
# [18] = molecular target: Gal(b1-4)GlcNAc(b1-2)Man(a1-6)[Man(a1-3)]Man(b1-4)GlcNAc(b1-4)GlcNAc
# Outline: as §1
# [19] = molecular target: Gal(b1-4)GlcNAc(b1-2)[Gal(b1-4)GlcNAc(b1-4)]Man(a1-3)[Gal(b1-4)GlcNAc(b1-2)Man(a1-6)]Man(b1-4)GlcNAc(b1-4)GlcNAc
# Outline: as §1
# [20] = molecular target: Gal(b1-4)GlcNAc(b1-2)[Gal(b1-4)GlcNAc(b1-4)]Man(a1-3)[Gal(b1-4)GlcNAc(b1-2)[Gal(b1-4)GlcNAc(b1-6)]Man(a1-6)]Man(b1-4)GlcNAc(b1-4)GlcNAc
# Outline: as §1
# [21] = molecular target: Gal(b1-4)GlcNAc(b1-2)[Gal(b1-4)GlcNAc(b1-4)]Man(a1-3)[GlcNAc(b1-4)][Gal(b1-4)GlcNAc(b1-2)Man(a1-6)]Man(b1-4)GlcNAc(b1-4)GlcNAc
# Outline: as §1
# [22] = molecular target: Gal(b1-4)GlcNAc(b1-2)[Gal(b1-4)GlcNAc(b1-4)]Man(a1-3)[GlcNAc(b1-4)][Gal(b1-4)GlcNAc(b1-2)[Gal(b1-4)GlcNAc(b1-6)]Man(a1-6)]Man(b1-4)GlcNAc(b1-4)GlcNAc
# Outline: as §1
# [23] = molecular target: Gal(b1-4)GlcNAc(b1-2)[Gal(b1-4)GlcNAc(b1-6)]Man(a1-6)[Gal(b1-4)GlcNAc(b1-2)Man(a1-3)]Man(b1-4)GlcNAc(b1-4)GlcNAc
# Outline: as §1
# [24] = molecular target: Gal(b1-4)GlcNAc(b1-2)[Gal(b1-4)GlcNAc(b1-6)]Man(a1-6)[Gal(b1-4)GlcNAc(b1-2)Man(a1-3)]Man(b1-4)GlcNAc(b1-4)[Fuc(a1-6)]GlcNAc
# Outline: as §1
# [25] = molecular target: Gal(b1-4)GlcNAc(b1-2)[Gal(b1-4)GlcNAc(b1-6)]Man(a1-6)[GlcNAc(b1-4)][Gal(b1-4)GlcNAc(b1-2)Man(a1-3)]Man(b1-4)GlcNAc(b1-4)GlcNAc
# Outline: as §1
# [26] = molecular target: Gal(b1-4)GlcNAc(b1-2)[Gal(b1-4)GlcNAc(b1-6)]Man(a1-6)[GlcNAc(b1-4)][Gal(b1-4)GlcNAc(b1-2)[Gal(b1-4)GlcNAc(b1-4)]Man(a1-3)]Man(b1-4)GlcNAc(b1-4)[Fuc(a1-6)]GlcNAc
# Outline: as §1
# [27] = molecular target: Gal(b1-4)GlcNAc(b1-3)Gal(b1-3)GalNAc
# Outline: as §1
# [28] = molecular target: Gal(b1-4)GlcNAc(b1-3)Gal(b1-3)GlcNAc
# Outline: as §1
# [29] = molecular target: Gal(b1-4)GlcNAc(b1-3)Gal(b1-4)Glc
# Outline: as §1
# [30] = molecular target: Gal(b1-4)GlcNAc(b1-3)Gal(b1-4)GlcNAc
# Outline: as §1
# [31] = molecular target: Gal(b1-4)GlcNAc(b1-3)Gal(b1-4)GlcNAc(b1-2)Man(a1-3)[Gal(b1-4)GlcNAc(b1-3)Gal(b1-4)GlcNAc(b1-2)Man(a1-6)]Man(b1-4)GlcNAc(b1-4)GlcNAc
# Outline: as §1
# [32] = molecular target: Gal(b1-4)GlcNAc(b1-3)Gal(b1-4)GlcNAc(b1-2)Man(a1-3)[Gal(b1-4)GlcNAc(b1-3)Gal(b1-4)GlcNAc(b1-2)Man(a1-6)]Man(b1-4)GlcNAc(b1-4)[Fuc(a1-6)]GlcNAc
# Outline: as §1
# [33] = molecular target: Gal(b1-4)GlcNAc(b1-3)Gal(b1-4)GlcNAc(b1-2)[Gal(b1-4)GlcNAc(b1-3)Gal(b1-4)GlcNAc(b1-6)]Man(a1-6)[Gal(b1-4)GlcNAc(b1-3)Gal(b1-4)GlcNAc(b1-2)Man(a1-3)]Man(b1-4)GlcNAc(b1-4)GlcNAc
# Outline: as §1
binder,measurement,setting,value
B1,glycan array binding signal (z-score),[1],0.807
same,glycan array binding signal (z-score),[2],0.024
same,glycan array binding signal (z-score),[3],-1.6
same,glycan array binding signal (z-score),[4],-0.54
same,glycan array binding signal (z-score),Gal(b1-4)Gal,1.01
same,glycan array binding signal (z-score),[5],-0.936
same,glycan array binding signal (z-score),[6],-0.864
same,glycan array binding signal (z-score),Gal(b1-4)Glc,0.222
same,glycan array binding signal (z-score),Gal(b1-4)Glc6S,-0.278
same,glycan array binding signal (z-score),Gal(b1-4)GlcNAc,-1
same,glycan array binding signal (z-score),[7],-0.437
same,glycan array binding signal (z-score),Gal(b1-4)GlcNAc(b1-2)Man,0.19
same,glycan array binding signal (z-score),[8],-0.393
same,glycan array binding signal (z-score),[9],-0.307
same,glycan array binding signal (z-score),[10],-0.734
same,glycan array binding signal (z-score),[11],-1.33
same,glycan array binding signal (z-score),[12],-1.32
same,glycan array binding signal (z-score),[13],0.192
same,glycan array binding signal (z-score),[14],-0.014
same,glycan array binding signal (z-score),[15],-0.538
same,glycan array binding signal (z-score),[16],0.334
same,glycan array binding signal (z-score),[17],-0.172
same,glycan array binding signal (z-score),[18],-0.888
same,glycan array binding signal (z-score),[19],-0.263
same,glycan array binding signal (z-score),[20],-0.164
same,glycan array binding signal (z-score),[21],-0.177
same,glycan array binding signal (z-score),[22],0.065
same,glycan array binding signal (z-score),[23],0.903
same,glycan array binding signal (z-score),[24],-0.532
same,glycan array binding signal (z-score),[25],3.4
same,glycan array binding signal (z-score),[26],-0.6
same,glycan array binding signal (z-score),[27],-0.786
same,glycan array binding signal (z-score),[28],-0.58
same,glycan array binding signal (z-score),[29],-1.14
same,glycan array binding signal (z-score),[30],0.308
same,glycan array binding signal (z-score),[31],1.69
same,glycan array binding signal (z-score),[32],2.08
same,glycan array binding signal (z-score),[33],0.498

# As a short view, some entries already given:
binder,measurement,setting,value
B1,glycan array binding signal (z-score),[9],-0.307
same,glycan array binding signal (z-score),[10],-0.734
same,glycan array binding signal (z-score),[11],-1.33
same,glycan array binding signal (z-score),[12],-1.32
same,glycan array binding signal (z-score),[13],0.192
same,glycan array binding signal (z-score),[14],-0.014
same,glycan array binding signal (z-score),[15],-0.538
same,glycan array binding signal (z-score),[16],0.334
same,glycan array binding signal (z-score),[17],-0.172
same,glycan array binding signal (z-score),[18],-0.888
same,glycan array binding signal (z-score),[19],-0.263
